Values from PubChem BioAssay AID504764 (Drosophila RNAi Screening Center, 2011).

- Test: 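Knock-downs that raise or lower a Notch target reporter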 (primary screen)
- System: Drosophila Kc167 cells
- Knock-down reagent: long dsRNA against Drosophila genes
- Timing: about 5 days (4 days dsRNA, then 24 h after transfection)
- Challenge: transfection of constitutively active membrane-tethered Notch lacking the extracellular domain, read 24 h later
- Measurement: 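Firefly luciferase from an E(spl)m3 reporter with active Notch, plus control-promoter and uninduced reporter wells for normalisation; unnormalised counts, duplicate wells a and b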
- Direction: induced reporter light, run 1, well a and induced reporter light, run 1, well b: higher = more light from the Notch target reporter with active Notch; control promoter light, run 1, well a and control promoter light, run 1, well b: higher = more light from the viral control promoter (cell number, transfection, viability); uninduced reporter light, run 1, well a: higher = more light from the Notch target reporter without active Notch
- Call rule: 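Wells with low control signal or poorly matching duplicates excluded; duplicates averaged; per source plate, z beyond ±2 for induced/control log2 ratio or beyond ±1.8 for induced/uninduced marks a hit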
- Meaning of the calls: active = modifier hit (raised or lowered Notch signal); inactive = not a hit
In all, the deposit lists about 22,000 reagents; this is a random part of those that have a named target and a result. Over the whole deposit, 403 (1.9%) were called active. 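Unnormalised raw counts per well; ratio z-scores behind the hit calls and whether each hit raises or lowers signal are not deposited.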 Unmarked entries are inactive. Reagent sequences are not shown. The record does not give: the amount of reagent.

predicted target | DRSC id | induced reporter light, run 1, well a | induced reporter light, run 1, well b | control promoter light, run 1, well a | control promoter light, run 1, well b | uninduced reporter light, run 1, well a
CG12121 (GeneID 31866) | DRSC17816 | 1.39e5 | 1.27e5 | 2.94e5 | 2.65e5 | 8205
Cht5 (GeneID 41687) | DRSC16470 | 1.54e5 | 1.26e5 | 89995 | 85300 | 10505
Yip1d1 (GeneID 34696) | DRSC02166 | 1.37e5 | 1.86e5 | 1.70e5 | 1.61e5 | 11695
Lip2 (GeneID 43980) | DRSC02577 | 95645 | 1.19e5 | 62995 | 80775 | 15530
Lip2 (GeneID 43980) | DRSC02578 | 98095 | 1.11e5 | 73845 | 83320 | 15900
twf (GeneID 41719) | DRSC15466 | 1.58e5 | 1.65e5 | 1.20e5 | 99240 | 10715
CG15203 (GeneID 32038) | DRSC19650 | 1.25e5 | 1.08e5 | 2.14e5 | 2.15e5 | 9610
Sgs5 (GeneID 42114) | DRSC16862 | 2.41e5 | 2.17e5 | 1.97e5 | 2.34e5 | 20065
zen (GeneID 40828) | DRSC12632 | 1.16e5 | 89700 | 85270 | 71400 | 7100
Mabi (GeneID 34727) | DRSC02489 | 2.13e5 | 2.17e5 | 1.60e5 | 1.81e5 | 16765
Rpn7 (GeneID 42641) | DRSC16841 | 9860 | 9645 | 9970 | 10795 | 950
CG14635 (GeneID 31032) | DRSC17945 | 1.35e5 | 1.14e5 | 2.60e5 | 2.05e5 | 8135
p47 (GeneID 35674) | DRSC06046 | 70070 | 51925 | 53265 | 56160 | 3780
CR41501 (GeneID 5740839) | DRSC07785 | 1.31e5 | 1.05e5 | 1.45e5 | 1.18e5 | 8995
Pka-R2 (GeneID 36041) | DRSC07509 | 1.92e5 | 2.28e5 | 2.32e5 | 2.45e5 | 19355
rogdi (GeneID 39917) | DRSC10906 | 89755 | 1.00e5 | 57260 | 70845 | 9165

As entered above.
For “control promoter light, run 1, well a”, p47 (GeneID 35674) [DRSC06046] reads 53265
For “uninduced reporter light, run 1, well a”, twf (GeneID 41719) [DRSC15466] has 10715
Entry for Rpn7 (GeneID 42641) [DRSC16841] in “control promoter light, run 1, well b”: 10795
Entry for Lip2 (GeneID 43980) [DRSC02577] under “induced reporter light, run 1, well b”: 1.19e5
Lip2 (GeneID 43980) [DRSC02578], control promoter light, run 1, well a = 73845

Further results follow.
predicted target | DRSC id | induced reporter light, run 1, well a | induced reporter light, run 1, well b | control promoter light, run 1, well a | control promoter light, run 1, well b | uninduced reporter light, run 1, well a
mRpS29 (GeneID 37563) | DRSC04398 | 1.60e5 | 1.57e5 | 1.21e5 | 1.25e5 | 11850
spz3 (GeneID 34077) | DRSC02391 | 1.35e5 | 1.60e5 | 1.06e5 | 1.47e5 | 21270
spz3 (GeneID 34077) | DRSC03008 | 1.05e5 | 1.28e5 | 58880 | 62810 | 16950
heca (GeneID 43604) | DRSC16964 | 30640 | 28685 | 31005 | 30580 | 5345
Past1 (GeneID 41569) | DRSC16784 | 58970 | 83295 | 78345 | 52045 | 5715
Drak (GeneID 32097) | DRSC19778 | 66710 | 53055 | 1.25e5 | 1.32e5 | 4655
CG4119 (GeneID 31481) | DRSC17741 | 1.47e5 | 1.07e5 | 1.63e5 | 1.69e5 | 9810
Or83a (GeneID 40648) | DRSC12357 | 77900 | 95160 | 92075 | 87830 | 4680
sky (GeneID 35359) | DRSC02383 | 2.37e5 | 2.29e5 | 1.73e5 | 1.97e5 | 18330
sky (GeneID 35359) | DRSC03214 | 2.10e5 | 1.73e5 | 1.63e5 | 1.84e5 | 17765
sky (GeneID 35359) | DRSC03215 | 62355 | 41340 | 39320 | 36625 | 1580
CG17944 (GeneID 40885) | DRSC12572 | 87500 | 81295 | 61920 | 58335 | 5430
eag (GeneID 32428) | DRSC19067 | 89655 | 97970 | 96975 | 95860 | 8035
eag (GeneID 32428) | DRSC20328 | 88660 | 79780 | 81785 | 74455 | 11688
Oseg4 (GeneID 38219) | DRSC08548 | 1.16e5 | 1.35e5 | 2.86e5 | 2.59e5 | 10560
Tsp42A (GeneID 35515) | DRSC04862 | 1.77e5 | 1.49e5 | 1.91e5 | 1.70e5 | 11460
CG18213 (GeneID 42055) | DRSC15316 | 1.88e5 | 2.44e5 | 2.10e5 | 2.15e5 | 15215
CG12071 (GeneID 43660) | DRSC14471 | 3435 | 2800 | 5545 | 5825 | 2265
